Reference: the supplement of paper PMC10849652
The other results are listed elsewhere or left out.

Amino acid sequences for entries named in this document (tags omitted). A change or cut given only in a name is not applied to a line headed by its entry.
UniProt Q9H0G5: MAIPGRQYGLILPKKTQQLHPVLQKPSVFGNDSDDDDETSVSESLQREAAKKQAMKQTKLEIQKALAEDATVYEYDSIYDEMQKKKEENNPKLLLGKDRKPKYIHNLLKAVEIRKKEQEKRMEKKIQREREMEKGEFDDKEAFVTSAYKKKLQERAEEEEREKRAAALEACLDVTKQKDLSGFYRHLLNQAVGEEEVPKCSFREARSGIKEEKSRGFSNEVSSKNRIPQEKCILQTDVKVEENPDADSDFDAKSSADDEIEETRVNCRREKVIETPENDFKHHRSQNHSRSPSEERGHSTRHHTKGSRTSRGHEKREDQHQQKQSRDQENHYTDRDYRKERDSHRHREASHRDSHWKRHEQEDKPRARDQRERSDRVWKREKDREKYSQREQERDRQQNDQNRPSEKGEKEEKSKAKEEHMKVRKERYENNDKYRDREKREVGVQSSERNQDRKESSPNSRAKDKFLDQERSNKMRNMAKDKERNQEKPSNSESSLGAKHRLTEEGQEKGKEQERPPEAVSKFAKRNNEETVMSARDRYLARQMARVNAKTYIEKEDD
UniProt Q6PK18: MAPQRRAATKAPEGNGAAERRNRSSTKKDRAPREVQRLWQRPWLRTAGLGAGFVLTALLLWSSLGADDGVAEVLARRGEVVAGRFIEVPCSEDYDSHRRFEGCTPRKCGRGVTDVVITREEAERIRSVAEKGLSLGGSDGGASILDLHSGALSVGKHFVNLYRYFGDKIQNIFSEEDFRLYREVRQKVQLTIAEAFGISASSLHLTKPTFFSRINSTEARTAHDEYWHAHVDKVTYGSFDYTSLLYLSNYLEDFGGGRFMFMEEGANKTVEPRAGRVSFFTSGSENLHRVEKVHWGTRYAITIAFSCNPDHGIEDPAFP
UniProt Q8TEA1: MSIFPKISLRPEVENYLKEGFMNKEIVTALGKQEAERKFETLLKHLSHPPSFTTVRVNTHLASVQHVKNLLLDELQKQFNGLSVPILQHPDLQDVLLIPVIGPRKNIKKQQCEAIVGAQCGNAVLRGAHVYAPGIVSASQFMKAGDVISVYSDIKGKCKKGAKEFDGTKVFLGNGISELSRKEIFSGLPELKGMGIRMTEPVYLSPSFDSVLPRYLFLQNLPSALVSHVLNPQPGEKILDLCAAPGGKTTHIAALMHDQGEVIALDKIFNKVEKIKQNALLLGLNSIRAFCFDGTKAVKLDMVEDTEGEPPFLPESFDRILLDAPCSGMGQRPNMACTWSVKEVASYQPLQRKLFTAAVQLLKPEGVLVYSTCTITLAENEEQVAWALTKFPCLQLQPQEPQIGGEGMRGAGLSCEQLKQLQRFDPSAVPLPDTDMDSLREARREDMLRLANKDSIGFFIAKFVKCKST
UniProt Q9NX40: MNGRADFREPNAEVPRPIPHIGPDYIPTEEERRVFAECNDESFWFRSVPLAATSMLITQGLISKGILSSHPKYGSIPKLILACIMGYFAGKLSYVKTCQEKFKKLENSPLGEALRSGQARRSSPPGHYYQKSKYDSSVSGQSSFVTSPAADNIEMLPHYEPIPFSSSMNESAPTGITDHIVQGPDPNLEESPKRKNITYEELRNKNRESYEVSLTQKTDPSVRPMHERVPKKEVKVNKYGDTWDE
UniProt Q5SRE5: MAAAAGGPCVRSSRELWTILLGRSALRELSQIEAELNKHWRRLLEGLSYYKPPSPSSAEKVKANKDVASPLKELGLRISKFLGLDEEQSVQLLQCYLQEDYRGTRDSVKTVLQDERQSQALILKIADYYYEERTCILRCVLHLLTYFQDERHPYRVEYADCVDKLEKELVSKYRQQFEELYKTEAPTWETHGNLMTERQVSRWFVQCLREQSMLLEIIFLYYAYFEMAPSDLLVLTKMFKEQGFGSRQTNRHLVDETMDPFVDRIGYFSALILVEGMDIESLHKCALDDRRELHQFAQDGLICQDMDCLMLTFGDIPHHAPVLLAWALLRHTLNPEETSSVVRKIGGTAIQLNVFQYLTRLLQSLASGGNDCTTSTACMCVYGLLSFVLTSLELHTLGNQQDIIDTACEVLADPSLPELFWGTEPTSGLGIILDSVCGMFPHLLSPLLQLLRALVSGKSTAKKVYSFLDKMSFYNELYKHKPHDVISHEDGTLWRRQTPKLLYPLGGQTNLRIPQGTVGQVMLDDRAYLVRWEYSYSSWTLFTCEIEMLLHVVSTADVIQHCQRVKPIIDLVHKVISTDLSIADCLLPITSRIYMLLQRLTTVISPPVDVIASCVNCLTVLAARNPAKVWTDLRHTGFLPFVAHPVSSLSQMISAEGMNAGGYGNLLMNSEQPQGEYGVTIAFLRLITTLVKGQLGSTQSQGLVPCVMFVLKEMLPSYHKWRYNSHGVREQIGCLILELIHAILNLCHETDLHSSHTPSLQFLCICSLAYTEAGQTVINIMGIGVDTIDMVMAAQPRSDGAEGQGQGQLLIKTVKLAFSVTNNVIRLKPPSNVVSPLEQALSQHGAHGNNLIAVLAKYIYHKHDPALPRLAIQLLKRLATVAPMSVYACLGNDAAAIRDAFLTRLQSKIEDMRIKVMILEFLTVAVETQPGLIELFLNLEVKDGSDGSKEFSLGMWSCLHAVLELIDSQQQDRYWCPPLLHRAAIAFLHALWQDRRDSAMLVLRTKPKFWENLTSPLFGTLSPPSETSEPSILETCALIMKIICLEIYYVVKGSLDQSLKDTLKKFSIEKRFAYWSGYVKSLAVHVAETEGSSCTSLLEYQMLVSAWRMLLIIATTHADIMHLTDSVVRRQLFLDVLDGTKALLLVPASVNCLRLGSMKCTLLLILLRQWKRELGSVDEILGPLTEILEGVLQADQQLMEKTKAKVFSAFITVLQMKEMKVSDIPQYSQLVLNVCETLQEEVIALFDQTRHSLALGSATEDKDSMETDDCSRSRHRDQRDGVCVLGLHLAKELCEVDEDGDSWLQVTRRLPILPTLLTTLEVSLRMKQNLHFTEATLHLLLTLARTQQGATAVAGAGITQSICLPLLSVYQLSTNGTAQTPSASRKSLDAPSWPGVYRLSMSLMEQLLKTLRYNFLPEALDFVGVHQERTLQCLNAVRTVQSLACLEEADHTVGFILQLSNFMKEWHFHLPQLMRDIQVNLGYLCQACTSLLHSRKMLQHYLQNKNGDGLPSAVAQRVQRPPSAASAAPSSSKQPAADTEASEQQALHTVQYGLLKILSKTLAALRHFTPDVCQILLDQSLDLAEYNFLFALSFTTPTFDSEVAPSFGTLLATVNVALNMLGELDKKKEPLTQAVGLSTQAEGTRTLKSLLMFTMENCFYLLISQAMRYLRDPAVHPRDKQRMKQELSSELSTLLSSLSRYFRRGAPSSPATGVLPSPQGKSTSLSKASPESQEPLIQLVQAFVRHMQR
UniProt Q8NFH3: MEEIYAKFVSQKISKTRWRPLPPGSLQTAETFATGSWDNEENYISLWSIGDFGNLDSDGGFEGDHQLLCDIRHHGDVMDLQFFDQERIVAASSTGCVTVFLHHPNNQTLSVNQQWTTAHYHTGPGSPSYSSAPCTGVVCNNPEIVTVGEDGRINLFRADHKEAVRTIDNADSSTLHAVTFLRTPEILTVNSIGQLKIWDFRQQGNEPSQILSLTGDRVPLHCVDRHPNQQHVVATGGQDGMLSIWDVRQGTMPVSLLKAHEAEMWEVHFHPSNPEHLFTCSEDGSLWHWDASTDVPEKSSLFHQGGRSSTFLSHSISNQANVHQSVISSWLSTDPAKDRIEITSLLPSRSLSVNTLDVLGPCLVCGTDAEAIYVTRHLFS
UniProt Q02818: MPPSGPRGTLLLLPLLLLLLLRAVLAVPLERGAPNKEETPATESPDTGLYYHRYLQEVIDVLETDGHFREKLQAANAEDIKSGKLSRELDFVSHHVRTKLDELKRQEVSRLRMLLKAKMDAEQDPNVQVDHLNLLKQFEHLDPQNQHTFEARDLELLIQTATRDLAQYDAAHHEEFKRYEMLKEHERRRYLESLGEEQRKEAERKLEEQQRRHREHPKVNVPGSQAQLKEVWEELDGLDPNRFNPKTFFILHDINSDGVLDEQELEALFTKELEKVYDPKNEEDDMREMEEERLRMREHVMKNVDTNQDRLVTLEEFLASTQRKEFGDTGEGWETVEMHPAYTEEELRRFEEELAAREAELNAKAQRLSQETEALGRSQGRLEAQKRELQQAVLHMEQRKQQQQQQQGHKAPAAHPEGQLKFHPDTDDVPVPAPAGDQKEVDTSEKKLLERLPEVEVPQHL
UniProt Q96SU4: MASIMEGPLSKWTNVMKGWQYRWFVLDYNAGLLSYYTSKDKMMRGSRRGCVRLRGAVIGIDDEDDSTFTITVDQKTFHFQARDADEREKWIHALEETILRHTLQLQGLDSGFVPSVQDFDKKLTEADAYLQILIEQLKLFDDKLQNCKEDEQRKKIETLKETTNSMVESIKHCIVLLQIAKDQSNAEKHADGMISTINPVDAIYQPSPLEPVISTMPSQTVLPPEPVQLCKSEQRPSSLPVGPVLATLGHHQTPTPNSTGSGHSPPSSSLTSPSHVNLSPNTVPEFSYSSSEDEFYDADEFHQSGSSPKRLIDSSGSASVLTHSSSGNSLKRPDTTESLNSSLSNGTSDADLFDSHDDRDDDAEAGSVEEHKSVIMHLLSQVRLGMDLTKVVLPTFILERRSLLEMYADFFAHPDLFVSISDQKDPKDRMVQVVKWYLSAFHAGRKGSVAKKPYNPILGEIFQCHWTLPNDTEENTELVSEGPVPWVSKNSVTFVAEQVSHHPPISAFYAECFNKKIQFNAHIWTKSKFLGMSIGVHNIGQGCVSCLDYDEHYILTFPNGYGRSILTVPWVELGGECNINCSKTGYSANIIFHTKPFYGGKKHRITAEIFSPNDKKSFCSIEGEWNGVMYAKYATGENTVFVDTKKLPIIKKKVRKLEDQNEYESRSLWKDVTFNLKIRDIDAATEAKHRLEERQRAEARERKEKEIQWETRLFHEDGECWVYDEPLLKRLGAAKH
UniProt P13674: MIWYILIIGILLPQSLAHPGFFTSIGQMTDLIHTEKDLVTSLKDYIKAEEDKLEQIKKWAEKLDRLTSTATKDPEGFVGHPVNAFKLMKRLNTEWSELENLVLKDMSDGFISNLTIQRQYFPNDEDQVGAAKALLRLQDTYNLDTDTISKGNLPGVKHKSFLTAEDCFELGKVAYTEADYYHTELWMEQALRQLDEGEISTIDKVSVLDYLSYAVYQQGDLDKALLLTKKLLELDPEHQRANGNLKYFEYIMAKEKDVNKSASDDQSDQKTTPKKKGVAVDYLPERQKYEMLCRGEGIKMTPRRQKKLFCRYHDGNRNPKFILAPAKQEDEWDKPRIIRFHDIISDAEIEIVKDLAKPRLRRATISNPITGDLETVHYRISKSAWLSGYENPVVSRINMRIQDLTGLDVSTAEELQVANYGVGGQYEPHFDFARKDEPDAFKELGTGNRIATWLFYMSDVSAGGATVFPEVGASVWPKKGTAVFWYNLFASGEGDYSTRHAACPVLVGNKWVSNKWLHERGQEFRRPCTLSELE
UniProt Q9NPF4: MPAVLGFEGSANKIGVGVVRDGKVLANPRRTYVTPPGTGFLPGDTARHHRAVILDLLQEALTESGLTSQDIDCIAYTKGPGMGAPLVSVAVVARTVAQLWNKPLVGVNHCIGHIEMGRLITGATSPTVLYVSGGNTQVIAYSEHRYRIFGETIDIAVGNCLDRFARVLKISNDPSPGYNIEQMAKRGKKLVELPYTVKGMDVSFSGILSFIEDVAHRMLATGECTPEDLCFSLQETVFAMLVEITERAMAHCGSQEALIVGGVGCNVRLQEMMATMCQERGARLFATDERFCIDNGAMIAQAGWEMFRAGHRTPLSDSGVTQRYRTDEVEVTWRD
UniProt Q99567: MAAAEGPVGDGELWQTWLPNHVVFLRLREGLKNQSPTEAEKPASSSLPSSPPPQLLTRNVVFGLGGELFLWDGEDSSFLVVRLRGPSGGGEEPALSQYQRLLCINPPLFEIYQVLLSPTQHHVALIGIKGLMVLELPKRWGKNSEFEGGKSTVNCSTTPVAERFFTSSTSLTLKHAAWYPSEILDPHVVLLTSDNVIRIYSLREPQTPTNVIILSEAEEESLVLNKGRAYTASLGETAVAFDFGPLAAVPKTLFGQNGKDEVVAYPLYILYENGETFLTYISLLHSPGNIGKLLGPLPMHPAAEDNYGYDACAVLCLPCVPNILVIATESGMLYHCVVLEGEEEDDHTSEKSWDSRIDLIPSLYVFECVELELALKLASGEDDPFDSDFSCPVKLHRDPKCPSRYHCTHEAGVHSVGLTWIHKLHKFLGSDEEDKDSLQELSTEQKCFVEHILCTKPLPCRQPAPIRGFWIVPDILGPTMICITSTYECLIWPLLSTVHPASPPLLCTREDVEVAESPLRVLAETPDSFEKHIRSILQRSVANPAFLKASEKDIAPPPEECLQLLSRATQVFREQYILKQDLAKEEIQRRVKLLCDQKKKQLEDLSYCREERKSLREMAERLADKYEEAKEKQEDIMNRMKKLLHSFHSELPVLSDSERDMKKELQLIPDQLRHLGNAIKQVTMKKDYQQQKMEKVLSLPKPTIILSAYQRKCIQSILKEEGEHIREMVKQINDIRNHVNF

Tests used:
Assay in all cases: log2 fold change, soluble protein after heating vs DMSO (PISA); higher = thermal stabilisation; K562 cells, 10 uM, 30 min; active = over 0.2 and 3.5 SD of the protein, either way, in both replicates (recomputed)
[1] = compound: COC1=CC=C(C=C1)CN2C=CC3=C2C=C(C=C3)C(=O)NO
Outline: (§1)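 Soluble protein was defined as the supernatant after 21,000xg for 90 min. It came from K562 cells at 2×10^6 cells/mL given 10 μM compound for 30 min, heated in aliquots for 3 min across 48°C-58°C, pooled, and extracted in PBS with 0.5% NP-40 at 4°C, and was quantified by TMTpro 16plex LC-MS/MS with equalised channel sums. Thermal stability against control samples, from duplicates, is reported as log2 fold change.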

filanesib = compound: CON(C)C(=O)N1N=C(c2cc(F)ccc2F)S[C@@]1(CCCN)c1ccccc1 [filanesib]
Outline: as §1

zotarolimus = compound: CO[C@H]1C[C@@H]2CC[C@@H](C)[C@@](O)(O2)C(=O)C(=O)N2CCCC[C@H]2C(=O)O[C@H]([C@H](C)C[C@@H]2CC[C@H](n3cnnn3)[C@H](OC)C2)CC(=O)[C@H](C)/C=C(\C)[C@@H](O)[C@@H](OC)C(=O)[C@H](C)C[C@H](C)/C=C/C=C/C=C/1C [zotarolimus]
Outline: as §1

idasanutlin = compound: COc1cc(C(=O)O)ccc1NC(=O)[C@@H]1N[C@@H](CC(C)(C)C)[C@](C#N)(c2ccc(Cl)cc2F)[C@H]1c1cccc(Cl)c1F [idasanutlin]
Outline: as §1

alisertib = compound: COc1cc(Nc2ncc3c(n2)-c2ccc(Cl)cc2C(c2c(F)cccc2OC)=NC3)ccc1C(=O)O [alisertib]
Outline: as §1

[2] = compound: COc1cc2nc(-c3cc(F)ccc3O)nc(N[C@@H]3CNC[C@H]3C(C)(C)O)c2cc1OC
Outline: as §1

gefitinib = compound: COc1cc2ncnc(Nc3ccc(F)c(Cl)c3)c2cc1OCCCN1CCOCC1 [gefitinib]
Outline: as §1

[3] = compound: COc1cccc2cc(-c3nc([C@H]4CC[C@H](C(=O)O)CC4)n4ncnc(N)c34)[nH]c12
Outline: as §1

lapatinib = compound: CS(=O)(=O)CCNCc1ccc(-c2ccc3ncnc(Nc4ccc(OCc5cccc(F)c5)c(Cl)c4)c3c2)o1 [lapatinib]
Outline: as §1

pictilisib = compound: CS(=O)(=O)N1CCN(Cc2cc3nc(-c4cccc5[nH]ncc45)nc(N4CCOCC4)c3s2)CC1 [pictilisib]
Outline: as §1

[4] = compound: CS(=O)(=O)c1ccc(-c2cnc(N)c(C(=O)Nc3ccccc3)n2)cc1
Outline: as §1

crizotinib = compound: C[C@@H](Oc1cc(-c2cnn(C3CCNCC3)c2)cnc1N)c1c(Cl)ccc(F)c1Cl [crizotinib]
Outline: as §1

[5] = compound: C[C@@H]1COCCN1C2=NC(=NC(=C2)C3(CC3)S(=O)(=O)C)C4=C5C=CNC5=CC=C4
Outline: as §1

[6] = compound: C[C@H](C1=CC=C(C=C1)C(=O)NC2=C3C=CNC3=NC=C2)N
Outline: as §1

duvelisib = compound: C[C@H](Nc1ncnc2nc[nH]c12)c1cc2cccc(Cl)c2c(=O)n1-c1ccccc1 [duvelisib]
Outline: as §1

gandotinib = compound: Cc1cc(Nc2cc(CN3CCOCC3)c3nc(C)c(Cc4ccc(Cl)cc4F)n3n2)n[nH]1 [gandotinib]
Outline: as §1

tozasertib = compound: Cc1cc(Nc2cc(N3CCN(C)CC3)nc(Sc3ccc(NC(=O)C4CC4)cc3)n2)n[nH]1 [tozasertib]
Outline: as §1

[7] = compound: Cc1cc(SCc2sc(-c3ccc(C(F)(F)F)cc3)nc2C)ccc1OCC(=O)O
Outline: as §1

doramapimod = compound: Cc1ccc(-n2nc(C(C)(C)C)cc2NC(=O)Nc2ccc(OCCN3CCOCC3)c3ccccc23)cc1 [doramapimod]
Outline: as §1

ispinesib = compound: Cc1ccc(C(=O)N(CCCN)[C@@H](c2nc3cc(Cl)ccc3c(=O)n2Cc2ccccc2)C(C)C)cc1 [ispinesib]
Outline: as §1

Measured: log2 fold change

NSRP1 (UniProt Q9H0G5)
inactive: [1] -0.024 | filanesib 0.243 | zotarolimus -0.003 | idasanutlin 0.163 | alisertib -0.078 | [2] -0.087 | gefitinib -0.029 | [3] -0.023 | lapatinib 0.079 | pictilisib -0.04 | [4] -0.045 | crizotinib 0.012 | [5] -0.193 | [6] 0.138 | duvelisib -0.061 | gandotinib 0.085 | tozasertib -0.051 | [7] -0.012 | doramapimod 0.086 | ispinesib -0.115

OGFOD3 isoform 2 (UniProt Q6PK18)
inactive: [1] -0.211 | filanesib -0.04 | zotarolimus -0.054 | idasanutlin -0.048 | alisertib 0.069 | [2] 0.048 | gefitinib -0.022 | [3] -0.139 | lapatinib 0 | pictilisib 0.092 | [4] 0.001 | crizotinib 0.027 | [5] 0.005 | [6] 0.078 | duvelisib 0.025 | gandotinib 0 | tozasertib 0.089 | [7] 0.014 | doramapimod 0.014

OPTN (UniProt Q96CV9)
inactive: [1] -0.003 | filanesib 0.08 | zotarolimus 0.109 | idasanutlin 0.025 | alisertib 0.354 | [2] 0.022 | gefitinib -0.024 | [3] 0 | lapatinib 0.032 | pictilisib -0.032 | [4] 0.089 | crizotinib 0.132 | [5] -0.045 | [6] -0.068 | duvelisib 0.082 | gandotinib 0.149 | tozasertib 0.127 | [7] -0.007 | doramapimod 0.02 | ispinesib 0.04

NUP37 (UniProt Q8NFH4)
inactive: [1] 0.009 | filanesib -0.001 | zotarolimus -0.023 | idasanutlin -0.019 | alisertib 0.033 | [2] 0.006 | gefitinib -0.012 | [3] 0.023 | lapatinib -0.022 | pictilisib 0.006 | [4] -0.087 | crizotinib 0.013 | [5] -0.007 | [6] -0.125 | duvelisib 0.035 | gandotinib -0.018 | tozasertib 0.021 | [7] 0.012 | doramapimod -0.054 | ispinesib 0.068

NSUN6 (UniProt Q8TEA1)
inactive: [1] -0.122 | filanesib -0.054 | zotarolimus 0.007 | idasanutlin -0.016 | alisertib -0.012 | [2] -0.082 | gefitinib 0.046 | [3] 0.025 | lapatinib 0.003 | pictilisib 0.046 | [4] 0.042 | crizotinib 0.008 | [5] 0.062 | [6] -0.022 | duvelisib 0.073 | gandotinib -0.036 | tozasertib 0.007 | [7] 0.029 | doramapimod -0.038 | ispinesib -0.001

OLA1 (UniProt Q9NTK5)
inactive: [1] 0.022 | filanesib -0.059 | zotarolimus 0.007 | idasanutlin -0.023 | alisertib -0.042 | [2] 0.003 | gefitinib -0.005 | [3] 0.021 | lapatinib 0.008 | pictilisib 0.03 | [4] -0.006 | crizotinib -0.028 | [5] 0.04 | [6] -0.058 | duvelisib 0.046 | gandotinib -0.027 | tozasertib -0.013 | [7] -0.005 | doramapimod -0.021 | ispinesib 0.036

OCIAD1 (UniProt Q9NX40)
inactive: [1] 0.054 | filanesib -0.047 | zotarolimus 0.041 | idasanutlin 0.031 | alisertib -0.027 | [2] -0.1 | gefitinib 0.005 | [3] 0.041 | lapatinib -0.031 | pictilisib 0.084 | [4] -0.003 | crizotinib -0.018 | [5] 0.185 | [6] -0.088 | duvelisib 0.01 | gandotinib 0.056 | tozasertib -0.016 | [7] -0.029 | doramapimod -0.025 | ispinesib -0.031

NUP188 (UniProt Q5SRE5)
inactive: [1] 0.031 | filanesib -0.005 | zotarolimus 0.033 | idasanutlin -0.052 | alisertib 0.008 | [2] 0.072 | gefitinib 0.014 | [3] -0.049 | lapatinib -0.024 | pictilisib 0.031 | [4] 0.031 | crizotinib -0.03 | [5] 0.057 | [6] -0.008 | duvelisib -0.003 | gandotinib -0.114 | tozasertib 0.012 | [7] 0.063 | doramapimod 0.007 | ispinesib 0.001

NUP43 (UniProt Q8NFH3)
inactive: [1] 0.06 | filanesib -0.024 | zotarolimus 0.045 | idasanutlin 0.003 | alisertib -0.148 | [2] -0.011 | gefitinib 0.015 | [3] 0.076 | lapatinib 0.021 | pictilisib 0.008 | [4] -0.018 | crizotinib -0.02 | [5] -0.018 | [6] -0.203 | duvelisib -0.04 | gandotinib -0.005 | tozasertib 0.007 | [7] -0.02 | doramapimod 0.008 | ispinesib 0.056

NUP58 (UniProt Q9BVL2)
inactive: [1] -0.034 | filanesib -0.021 | zotarolimus -0.021 | idasanutlin -0.123 | alisertib -0.055 | [2] 0.127 | gefitinib 0.007 | [3] 0.009 | lapatinib 0.014 | pictilisib 0.013 | [4] 0.034 | crizotinib 0.009 | [5] -0.017 | [6] 0.026 | duvelisib -0.021 | gandotinib -0.053 | tozasertib -0.009 | [7] -0.043 | doramapimod -0.009 | ispinesib -0.01

NUCB1 (UniProt Q02818)
inactive: [1] -0.025 | filanesib -0.032 | zotarolimus -0.033 | idasanutlin 0.005 | alisertib -0.046 | [2] -0.02 | gefitinib -0.007 | [3] 0.013 | lapatinib 0.01 | pictilisib -0.032 | [4] -0.037 | crizotinib -0.01 | [5] -0.064 | [6] -0.017 | duvelisib -0.007 | gandotinib 0.009 | tozasertib -0.008 | [7] -0.054 | doramapimod 0.018 | ispinesib 0.034

NUDCD1 (UniProt Q96RS6)
inactive: [1] 0 | filanesib -0.091 | zotarolimus 0.006 | idasanutlin -0.042 | alisertib -0.073 | [2] -0.005 | gefitinib 0.004 | [3] 0.012 | lapatinib -0.006 | pictilisib 0.047 | [4] 0.005 | crizotinib 0 | [5] 0.096 | [6] -0.119 | duvelisib 0.065 | gandotinib -0.081 | tozasertib 0 | [7] 0.029 | doramapimod -0.001 | ispinesib 0.04

OSBPL9 (UniProt Q96SU4)
inactive: [1] 0.023 | filanesib 0.128 | zotarolimus 0.076 | idasanutlin 0.077 | alisertib 0.132 | [2] -0.021 | gefitinib 0.219 | [3] -0.139 | lapatinib 0.37 | pictilisib -0.056 | [4] 0.004 | crizotinib -0.165 | [5] -0.027 | [6] 0.323 | duvelisib -0.184 | gandotinib 0.041 | tozasertib 0.17 | [7] 0.066 | doramapimod 0.174 | ispinesib -0.336

P4HA1 (UniProt P13674)
inactive: [1] -0.044 | filanesib 0.096 | zotarolimus 0.026 | idasanutlin 0.049 | alisertib -0.114 | [2] -0.016 | gefitinib -0.025 | [3] -0.135 | lapatinib 0.081 | pictilisib -0.003 | [4] 0.03 | crizotinib 0.037 | [5] -0.112 | [6] 0.179 | duvelisib -0.045 | gandotinib 0.1 | tozasertib 0.068 | [7] 0.051 | doramapimod 0.077 | ispinesib -0.029

OSGEP (UniProt Q9NPF4)
inactive: [1] -0.116 | filanesib 0.016 | zotarolimus -0.019 | idasanutlin -0.011 | alisertib -0.056 | [2] 0.002 | gefitinib 0.014 | [3] 0.075 | lapatinib 0.007 | pictilisib 0.002 | [4] 0.017 | crizotinib 0.038 | [5] -0.013 | [6] -0.04 | duvelisib 0.018 | gandotinib -0.01 | tozasertib -0.024 | [7] -0.015 | doramapimod -0.027 | ispinesib 0.049

NUP88 (UniProt Q99567)
inactive: [1] 0.049 | filanesib 0.195 | zotarolimus 0.072 | idasanutlin 0.065 | alisertib -0.095 | [2] 0.108 | gefitinib -0.015 | [3] -0.088 | lapatinib 0.06 | pictilisib -0.032 | [4] 0.049 | crizotinib -0.142 | [5] -0.038 | [6] 0.101 | duvelisib -0.067 | gandotinib -0.007 | tozasertib 0.037 | [7] 0.107 | doramapimod 0.063 | ispinesib 0.053

Four successive entries already listed, for reference:
NUP58 (UniProt Q9BVL2)
inactive: [1] -0.034 | filanesib -0.021 | zotarolimus -0.021 | idasanutlin -0.123 | alisertib -0.055 | [2] 0.127 | gefitinib 0.007 | [3] 0.009 | lapatinib 0.014 | pictilisib 0.013 | [4] 0.034 | crizotinib 0.009 | [5] -0.017 | [6] 0.026 | duvelisib -0.021 | gandotinib -0.053 | tozasertib -0.009 | [7] -0.043 | doramapimod -0.009 | ispinesib -0.01

NUCB1 (UniProt Q02818)
inactive: [1] -0.025 | filanesib -0.032 | zotarolimus -0.033 | idasanutlin 0.005 | alisertib -0.046 | [2] -0.02 | gefitinib -0.007 | [3] 0.013 | lapatinib 0.01 | pictilisib -0.032 | [4] -0.037 | crizotinib -0.01 | [5] -0.064 | [6] -0.017 | duvelisib -0.007 | gandotinib 0.009 | tozasertib -0.008 | [7] -0.054 | doramapimod 0.018 | ispinesib 0.034

NUDCD1 (UniProt Q96RS6)
inactive: [1] 0 | filanesib -0.091 | zotarolimus 0.006 | idasanutlin -0.042 | alisertib -0.073 | [2] -0.005 | gefitinib 0.004 | [3] 0.012 | lapatinib -0.006 | pictilisib 0.047 | [4] 0.005 | crizotinib 0 | [5] 0.096 | [6] -0.119 | duvelisib 0.065 | gandotinib -0.081 | tozasertib 0 | [7] 0.029 | doramapimod -0.001 | ispinesib 0.04

OSBPL9 (UniProt Q96SU4)
inactive: [1] 0.023 | filanesib 0.128 | zotarolimus 0.076 | idasanutlin 0.077 | alisertib 0.132 | [2] -0.021 | gefitinib 0.219 | [3] -0.139 | lapatinib 0.37 | pictilisib -0.056 | [4] 0.004 | crizotinib -0.165 | [5] -0.027 | [6] 0.323 | duvelisib -0.184 | gandotinib 0.041 | tozasertib 0.17 | [7] 0.066 | doramapimod 0.174 | ispinesib -0.336
